# Test results: paper PMC4693281
# Where a chain is given by its changes, count along the chain named. No constants are given. Whether binding was seen depends on the method and setting. Binding seen in cells or lysates may run through a third protein. Some binding calls cover weakened binding; strength is not graded here. Tags and fused reporters may be left off the sequences shown.
# T1: bovine ZP3 C-terminal fragment Gln-144 to Arg-348, N-terminal His-tag and S-tag (bovine) (UniProt P48830)
# T1 sequence: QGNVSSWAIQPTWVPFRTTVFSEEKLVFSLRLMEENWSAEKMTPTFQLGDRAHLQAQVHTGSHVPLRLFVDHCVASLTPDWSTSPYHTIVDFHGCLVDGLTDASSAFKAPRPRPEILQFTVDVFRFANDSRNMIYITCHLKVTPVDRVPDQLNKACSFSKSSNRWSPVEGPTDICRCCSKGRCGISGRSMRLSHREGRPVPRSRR
# T2: bovine ZP3 C-terminal fragment Glu-177 to Arg-348, N-terminal His-tag and S-tag (bovine) (UniProt P48830)
# T2 sequence: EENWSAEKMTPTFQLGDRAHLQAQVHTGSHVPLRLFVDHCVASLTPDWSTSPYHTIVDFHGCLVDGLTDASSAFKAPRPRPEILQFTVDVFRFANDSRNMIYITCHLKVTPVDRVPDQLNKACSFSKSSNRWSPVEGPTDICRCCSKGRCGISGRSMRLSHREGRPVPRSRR
# T3: bovine ZP3 fragment 32-149, N-terminal His-tag and S-tag (bovine) (UniProt P48830)
# T3 sequence: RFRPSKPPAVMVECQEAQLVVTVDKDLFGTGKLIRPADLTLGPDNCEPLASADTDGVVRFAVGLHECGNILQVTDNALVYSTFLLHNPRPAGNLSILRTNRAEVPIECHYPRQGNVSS
# T4: bovine ZP3 fragment 32-178 with Asn-124 mutated to Asp, N-terminal His-tag and S-tag (bovine) (UniProt P48830)
# T4 sequence (chain, N-glycosylated Asn-146): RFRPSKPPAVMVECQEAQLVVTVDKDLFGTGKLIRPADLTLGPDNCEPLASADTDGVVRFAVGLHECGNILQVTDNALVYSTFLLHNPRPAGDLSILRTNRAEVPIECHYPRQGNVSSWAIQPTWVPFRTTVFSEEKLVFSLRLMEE
# T5: bovine ZP3 fragment 32-178 with Asn-146 mutated to Asp, N-terminal His-tag and S-tag (bovine) (UniProt P48830)
# T5 sequence (chain, N-glycosylated Asn-124): T4 sequence (chain, N-glycosylated Asn-146) with D93N, N115D
# T6: bovine ZP3 fragment Arg-32 to Arg-160, N-terminal His-tag and S-tag (bovine) (UniProt P48830)
# T6 sequence: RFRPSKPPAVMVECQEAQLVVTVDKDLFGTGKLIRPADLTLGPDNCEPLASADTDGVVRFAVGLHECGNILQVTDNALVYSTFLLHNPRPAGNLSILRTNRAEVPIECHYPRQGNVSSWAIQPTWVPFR
# T7: bovine ZP3 fragment Arg-32 to Glu-178, N-terminal His-tag and S-tag (bovine) (UniProt P48830)
# T7 sequence (chain, N-glycosylated Asn-124 and Asn-146): T4 sequence (chain, N-glycosylated Asn-146) with D93N
# T8: bovine ZP3 fragment Arg-32 to Lys-168, N-terminal His-tag and S-tag (bovine) (UniProt P48830)
# T8 sequence: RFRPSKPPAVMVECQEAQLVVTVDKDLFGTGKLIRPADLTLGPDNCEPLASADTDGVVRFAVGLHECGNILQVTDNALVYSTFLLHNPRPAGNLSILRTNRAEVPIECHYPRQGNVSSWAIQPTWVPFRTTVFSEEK
# T9: bovine ZP3 fragment Arg-32 to Thr-155, N-terminal His-tag and S-tag (bovine) (UniProt P48830)
# T9 sequence: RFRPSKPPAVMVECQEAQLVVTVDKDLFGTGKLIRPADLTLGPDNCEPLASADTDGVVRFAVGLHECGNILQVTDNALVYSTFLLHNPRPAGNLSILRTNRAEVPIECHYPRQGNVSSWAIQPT
# B1: bovine ZP4 (Lys-25 to Arg-464) with N-terminal FLAG-tag and S-tag (domain or fragment, UniProt Q9BH11 25-464)
# chain: KVPEYPDELRCGLRSFQFTINPLSQETETPPVLVAWDNHGLPHSLQNDSDCGTWVSEGPGSSLVGEASYSGCYVTEWESYYIMTVGIERAGVSGSGAFIETKLFKCPVNLPDVPNAGLCDSVPVWDRLPCAPSPITQGDCKQLGCCYNSEEVISCYYGNTVTSHCTQDGHFSIAVSRNVTSPPLLLNSVHLAFRNDSECKPVMATHTFVLFRFPFTTCGTTKQITGKQAVYENELVAARDVRTWSRGSITRDSTFRLQVSCSYSASSSALPVNVQVLTLPPPLPETQPGNLTLELKIAKDKRYRSYYTASDYPVVKLLRDPIYVEVSIHQRTDPSLELRLDQCWATPGADALLQPQWPLLVNGCPYTGDNYQTKLIPVWEASDLPFPSHYQRFSISTFSFVDSVAKRALKGPVYLHCSASVCQPAGTPSCVTLCPARRRR
# How the values were obtained:
# Assay in all cases: pull-down; FLAG- and S-tagged ZP4 co-expressed with His- and S-tagged ZP3 fragment in Sf9 cells (48 h, 27 °C); culture supernatant mixed with TALON resin 1 h at room temperature, washed three times with PBS; ZP4 in pellet and supernatant detected by anti-FLAG Western blot; ZP4 expressed alone as background
# [1] = target: T1, bovine ZP3 C-terminal fragment Gln-144 to Arg-348, N-terminal His-tag and S-tag (bovine)
# [2] = target: T2, bovine ZP3 C-terminal fragment Glu-177 to Arg-348, N-terminal His-tag and S-tag (bovine)
# [3] = target: T3, bovine ZP3 fragment 32-149, N-terminal His-tag and S-tag (bovine)
# [4] = target: T4, bovine ZP3 fragment 32-178 with Asn-124 mutated to Asp, N-terminal His-tag and S-tag (bovine)
# [5] = target: T5, bovine ZP3 fragment 32-178 with Asn-146 mutated to Asp, N-terminal His-tag and S-tag (bovine)
# [6] = target: T6, bovine ZP3 fragment Arg-32 to Arg-160, N-terminal His-tag and S-tag (bovine)
# [7] = target: T7, bovine ZP3 fragment Arg-32 to Glu-178, N-terminal His-tag and S-tag (bovine)
# [8] = target: T8, bovine ZP3 fragment Arg-32 to Lys-168, N-terminal His-tag and S-tag (bovine)
# [9] = target: T9, bovine ZP3 fragment Arg-32 to Thr-155, N-terminal His-tag and S-tag (bovine)
binder,measurement,setting,value
B1,binding,[1],binds
same,binding,[2],binds
same,binding,[3],binds weakly
same,binding,[4],binds
same,binding,[5],binds
same,binding,[6],binds
same,binding,[7],binds
same,binding,[8],binds
same,binding,[9],binds weakly
